In paper PMC10460901:
Results are given in words; binding and its absence hold for the method and conditions named. Binding seen in cells or lysates may run through a third protein. Some binding calls cover weakened binding; strength is not graded here. For some assays here: Sequences can lack the tags named with a protein.

Amino acid sequences for entries named in this document (tags omitted). A change or cut given only in a name is not applied to a line headed by its entry.
UniProt P48436: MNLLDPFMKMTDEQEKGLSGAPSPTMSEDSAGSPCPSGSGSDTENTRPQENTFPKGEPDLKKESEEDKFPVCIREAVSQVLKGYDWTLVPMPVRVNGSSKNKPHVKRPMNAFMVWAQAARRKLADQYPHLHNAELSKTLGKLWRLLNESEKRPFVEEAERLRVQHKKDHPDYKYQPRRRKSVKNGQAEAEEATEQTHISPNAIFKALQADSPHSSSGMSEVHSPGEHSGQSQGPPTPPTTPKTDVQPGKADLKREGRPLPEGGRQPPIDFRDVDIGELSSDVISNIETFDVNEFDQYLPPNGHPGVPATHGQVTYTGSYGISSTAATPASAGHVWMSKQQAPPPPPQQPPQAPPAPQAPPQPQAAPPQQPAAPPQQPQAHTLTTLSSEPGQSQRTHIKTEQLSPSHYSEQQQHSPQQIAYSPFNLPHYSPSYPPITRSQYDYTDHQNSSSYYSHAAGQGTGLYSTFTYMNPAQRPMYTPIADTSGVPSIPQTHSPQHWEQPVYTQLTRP
UniProt Q96KQ7: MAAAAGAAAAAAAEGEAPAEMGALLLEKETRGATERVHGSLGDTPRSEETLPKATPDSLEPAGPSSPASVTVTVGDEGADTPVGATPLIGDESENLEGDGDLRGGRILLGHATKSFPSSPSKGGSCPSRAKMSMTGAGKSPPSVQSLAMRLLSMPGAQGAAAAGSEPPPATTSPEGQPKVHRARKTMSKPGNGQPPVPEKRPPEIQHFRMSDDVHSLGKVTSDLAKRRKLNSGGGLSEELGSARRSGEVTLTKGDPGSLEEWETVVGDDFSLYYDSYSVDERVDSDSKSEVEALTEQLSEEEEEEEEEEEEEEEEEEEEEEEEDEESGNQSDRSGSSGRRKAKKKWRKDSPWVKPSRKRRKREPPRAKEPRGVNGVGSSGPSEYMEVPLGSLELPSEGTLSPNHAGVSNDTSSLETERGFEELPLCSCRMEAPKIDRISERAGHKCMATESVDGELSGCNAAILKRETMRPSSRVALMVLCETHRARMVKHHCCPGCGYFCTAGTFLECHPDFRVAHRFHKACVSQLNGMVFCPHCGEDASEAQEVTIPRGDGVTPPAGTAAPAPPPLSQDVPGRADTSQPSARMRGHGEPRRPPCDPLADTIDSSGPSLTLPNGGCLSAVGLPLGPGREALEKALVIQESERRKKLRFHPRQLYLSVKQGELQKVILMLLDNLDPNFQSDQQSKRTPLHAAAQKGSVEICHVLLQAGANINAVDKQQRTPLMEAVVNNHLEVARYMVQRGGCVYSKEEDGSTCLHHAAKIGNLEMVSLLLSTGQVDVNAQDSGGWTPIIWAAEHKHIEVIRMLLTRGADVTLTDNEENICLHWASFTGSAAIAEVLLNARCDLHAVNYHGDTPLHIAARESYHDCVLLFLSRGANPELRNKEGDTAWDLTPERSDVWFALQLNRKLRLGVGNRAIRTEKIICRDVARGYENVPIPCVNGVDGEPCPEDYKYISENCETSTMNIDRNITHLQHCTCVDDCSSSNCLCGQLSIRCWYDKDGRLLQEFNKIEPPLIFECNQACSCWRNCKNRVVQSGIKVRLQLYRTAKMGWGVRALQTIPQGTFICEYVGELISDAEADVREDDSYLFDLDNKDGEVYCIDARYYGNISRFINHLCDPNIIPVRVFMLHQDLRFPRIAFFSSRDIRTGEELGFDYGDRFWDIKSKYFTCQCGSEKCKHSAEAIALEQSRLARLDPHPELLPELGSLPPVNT

Assays:
[1] = biological target: MYC‐tagged SOX9 (MYC‐SOX9), in HEK293T cells (UniProt P48436); assay: co-IP; protein extracts of HeLa or HEK293T cells transfected with MYC-SOX9; MYC antibody for immunoprecipitation, immunoblotting
[2] = biological target: SOX9 (sex‐determining region Y‐type high‐mobility group box protein 9) (not stated (endogenous in DPSCs)) (UniProt P48436); assay: co-IP; DPSC protein extracts treated with RNase A (10 µg mL^-1); SOX9 antibody for immunoprecipitation, immunoblotting for KDM3A and G9A
[3] = biological target: MYC‐tagged SOX9 (MYC‐SOX9), in HeLa cells (UniProt P48436); assay: co-IP; protein extracts of HeLa or HEK293T cells transfected with MYC-SOX9; MYC antibody for immunoprecipitation, immunoblotting
[4] = biological target: bacterially purified MYC‐SOX9 (UniProt P48436); assay: pull-down; purified MYC-SOX9 or MYC peptide loaded onto MYC-magnetic beads, then incubated with in vitro transcribed/translated FLAG-KDM3A or FLAG-G9A; western blotting; only the target purified

G9A in HEK293T cells (from UniProt Q96KQ7 1-1210) (enzyme)
binding [1]: binds

B1: Lysine demethylase 3A (KDM3A) (enzyme, UniProt Q9Y4C1 1-1321)
chain: MVLTLGESWPVLVGRRFLSLSAADGSDGSHDSWDVERVAEWPWLSGTIRAVSHTDVTKKDLKVCVEFDGESWRKRRWIEVYSLLRRAFLVEHNLVLAERKSPEISERIVQWPAITYKPLLDKAGLGSITSVRFLGDQQRVFLSKDLLKPIQDVNSLRLSLTDNQIVSKEFQALIVKHLDESHLLKGDKNLVGSEVKIYSLDPSTQWFSATVINGNPASKTLQVNCEEIPALKIVDPSLIHVEVVHDNLVTCGNSARIGAVKRKSSENNGTLVSKQAKSCSEASPSMCPVQSVPTTVFKEILLGCTAATPPSKDPRQQSTPQAANSPPNLGAKIPQGCHKQSLPEEISSCLNTKSEALRTKPDVCKAGLLSKSSQIGTGDLKILTEPKGSCTQPKTNTDQENRLESVPQALTGLPKECLPTKASSKAELEIANPPELQKHLEHAPSPSDVSNAPEVKAGVNSDSPNNCSGKKVEPSALACRSQNLKESSVKVDNESCCSRSNNKIQNAPSRKSVLTDPAKLKKLQQSGEAFVQDDSCVNIVAQLPKCRECRLDSLRKDKEQQKDSPVFCRFFHFRRLQFNKHGVLRVEGFLTPNKYDNEAIGLWLPLTKNVVGIDLDTAKYILANIGDHFCQMVISEKEAMSTIEPHRQVAWKRAVKGVREMCDVCDTTIFNLHWVCPRCGFGVCVDCYRMKRKNCQQGAAYKTFSWLKCVKSQIHEPENLMPTQIIPGKALYDVGDIVHSVRAKWGIKANCPCSNRQFKLFSKPASKEDLKQTSLAGEKPTLGAVLQQNPSVLEPAAVGGEAASKPAGSMKPACPASTSPLNWLADLTSGNVNKENKEKQPTMPILKNEIKCLPPLPPLSKSSTVLHTFNSTILTPVSNNNSGFLRNLLNSSTGKTENGLKNTPKILDDIFASLVQNKTTSDLSKRPQGLTIKPSILGFDTPHYWLCDNRLLCLQDPNNKSNWNVFRECWKQGQPVMVSGVHHKLNSELWKPESFRKEFGEQEVDLVNCRTNEIITGATVGDFWDGFEDVPNRLKNEKEPMVLKLKDWPPGEDFRDMMPSRFDDLMANIPLPEYTRRDGKLNLASRLPNYFVRPDLGPKMYNAYGLITPEDRKYGTTNLHLDVSDAANVMVYVGIPKGQCEQEEEVLKTIQDGDSDELTIKRFIEGKEKPGALWHIYAAKDTEKIREFLKKVSEEQGQENPADHDPIHDQSWYLDRSLRKRLHQEYGVQGWAIVQFLGDVVFIPAGAPHQVHNLYSCIKVAEDFVSPEHVKHCFWLTQEFRYLSQTHTNHEDKLQVKNVIYHAVKDAVAMLKASESSFGKP
binding [2]: binds

B2: KDM3A in HeLa cells (enzyme, UniProt Q9Y4C1 1-1321)
chain: B1 chain
binding [3]: binds

B3: KDM3A in HEK293T cells (enzyme, UniProt Q9Y4C1 1-1321)
chain: B1 chain
binding [1]: binds

B4: FLAG‐KDM3A (enzyme, UniProt Q9Y4C1 1-1321)
chain: B1 chain
binding [4]: binds
